Earlier results in patent US7862836B2, “Phosphorus binder for treatment of kidney disease” (Biolink Life Sciences, Inc., priority 2005, dated 2011).

Conditions: cited from earlier work; for Fractional calcium absorption / 10-h urinary calcium excretion: mean ± SE

Substance: Magnesium Acetate
- Net calcium absorption from the standard meal (increasing amounts of magnesium acetate): unaffected
- Fractional calcium absorption (standard meal + 10.2 mEq MgAc, eight subjects): 25.9 ± 2.9%
- 10-h urinary calcium excretion (standard meal + 10.2 mEq MgAc): 3.1 ± 0.6 mEq
- 10-h urinary calcium excretion (standard meal + 19.4 mEq MgAc): 3.3 ± 0.6 mEq
- Fractional calcium absorption (standard meal + 19.4 mEq MgAc): 24.5 ± 3.7%
- 10-h urinary calcium excretion (standard meal + 39.0 mEq MgAc): 3.9 ± 0.5 mEq
- Fractional calcium absorption (standard meal + 39.0 mEq MgAc): 25.4 ± 3.8%
- 10-h urinary calcium excretion (standard meal + 77.2 mEq MgAc): 4.9 ± 0.5 mEq
- Fractional calcium absorption (standard meal + 77.2 mEq MgAc): 24.0 ± 4.2%

Where two headings read alike, the source gives them in different places.
